The experiment has as its target T1, GST-tagged SNM1A peptide spanning the PBZ and UBZ motifs (GST-PBZ-UBZ) (human).
T1 sequence: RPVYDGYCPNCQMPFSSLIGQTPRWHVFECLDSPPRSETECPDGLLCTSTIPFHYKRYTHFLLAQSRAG
Nature of the experiment: pull-down; GST-SNM1A peptides held on glutathione-agarose beads, washed with PBS with 250 mM to 1 M salt; 150 ng purified PCNA or PCNA^ub added, tumbled at 4 °C for 1 h, washed as before; immunoblot for PCNA, PCNA^ub, GST; both purified. A general note: Immunoblotting shows a protein as a band on a membrane.

Chains of the proteins cited; added tags and fusions are not shown.
UniProt P12004: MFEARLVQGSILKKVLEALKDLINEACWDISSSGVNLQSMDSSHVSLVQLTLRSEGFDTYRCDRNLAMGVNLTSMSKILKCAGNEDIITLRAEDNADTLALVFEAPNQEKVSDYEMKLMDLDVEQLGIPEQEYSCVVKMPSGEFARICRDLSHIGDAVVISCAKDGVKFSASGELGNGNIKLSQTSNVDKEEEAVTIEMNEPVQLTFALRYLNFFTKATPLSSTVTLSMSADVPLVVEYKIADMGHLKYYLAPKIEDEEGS

This note sets out measurements from PMC11199599.

Results are given in words; binding and its absence hold for the method and conditions named. Where a sequence is shown, tags or fusion partners need not be part of it.

With Human PCNA (from UniProt P12004 1-261), the binding result is “no binding (tested: 150 ng)”.
